A negative result means that nothing was seen under these conditions. Where a protein sequence is shown, tags need not be part of it.
Target: T1, CepR (His-tagged response regulator) (Streptomyces clavuligerus F613-1) (UniProt E2PWN2)
T1 sequence (looked up): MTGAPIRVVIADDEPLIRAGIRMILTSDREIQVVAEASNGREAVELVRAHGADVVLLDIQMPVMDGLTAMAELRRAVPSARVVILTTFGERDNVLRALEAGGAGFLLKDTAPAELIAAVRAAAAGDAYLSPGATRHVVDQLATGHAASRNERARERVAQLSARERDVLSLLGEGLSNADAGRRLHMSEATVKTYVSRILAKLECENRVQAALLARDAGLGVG
Experiment: EMSA
Settings: 1.0 ug poly(dI-dC), EMSA with 0.5-3.0 ug His-CepR and 1.0 ug poly(dI-dC), pH and temperature not given (as in Fu et al. 2019; Zhang et al. 2015), recombinant protein, residues 3-224, probe letters rebuilt from the primers and the genome

| Sequence | binding result (3.0 ug CepR) | binding result (0.5-3.0 ug CepR, shift almost abrogated by 100-fold unlabeled P3) |
| --- | --- | --- |
| CCCAGTCGGCTACCGCCATGTCAACGCATCTCCCGCAAATCCAGAAGAACAGTCAATTCAGTGCAGCCATCGAAATTCGATCGGCCCGATGCAGCGTAGCAGTCATGACTCGATCTCGAACAGGAAGATTTTCTGTCCGCTTCGGAAAAATAGCGAAGAGATTCTGAAGACCAGCCGAAGAGCACTTCAAGAGTCCTGTCGTCCAGCATAGGTAGCCCACATTATGCAGTAAACCGTCCGGGCTGCTCGGCATTTGAATCTTTCGACCTTTTGTCCCGCTCCACAGGAGTTATCACCCATGGGTGCACAACGGCG (double strand) [cefD-cmcI intergenic P2] | no binding | – |
| TGCGGCGATCGGACGACCATCGATTGATGGTCCGCCGGCGGTCGATCGGCGGTCGGGCGACAGAGGTATGAACCAGTGTCAGGCGCCGCTCTGGACAGTACACTCCAGGCCGGTGAAGGAACTGTCAAGACCCGGTGATCACGGCCTTTACAAGATGTGGTCCAGGTGCCGCATGCATCACGCAACCATCGATCTCGACCAGAAGTTGAGATCGATGGAAAATGAGTCATGAAATGGCCTAATCTGCACGCCTAGCCCGCTCTGACCTGCTGCTTTAGCAGCTCGGAGACGTGGGCGGCGCCGTTGTGCACCCATGGG (double strand) [cefD-cmcI intergenic P3] | – | binds |
